# PubChem BioAssay AID1259254 – NCATS, 2017
# Assay: 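Genome-wide screen for genes that prevent DNA re-replication in cancer cells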 (primary screen)
# Cells: human HCT116 colorectal cancer cells
# Reagents: single siRNA against human genes
# Duration: 3 days
# Read-out: 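Nuclei stained with Hoechst and imaged; cell-cycle phase assigned by DNA content; G2 share scaled per plate, non-targeting siRNA 0%, GMNN siRNA 100%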
# Direction: G2 robust z-score: higher = more G2 cells, more excess DNA replication
# Hit rule: 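An siRNA counts as active if its G2 robust z-score lies at least 5 MADs above the screen median; here such calls match roughly 38% of GMNN control or more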
# Shown is one part, drawn at random, of about 59,000 deposited reagents. About 1,550 of them (2.6%) were called active. 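G2 share is only a proxy for re-replication; each gene was hit by three separate siRNAs, and active genes were retested.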 The numbers tell different reagents against one gene apart. Further read-outs or replicates are left out here. The record does not give: the amount of reagent.
The opening 2 entries as a preview:
gene knocked down,reagent no.,G2 robust z-score,activity call
TDRKH (tudor and KH domain containing),1,1.97,inactive
TDRKH (tudor and KH domain containing),2,3.64,inactive

Results, from the start:
gene knocked down,reagent no.,G2 robust z-score,activity call
TDRKH (tudor and KH domain containing),1,1.97,inactive
TDRKH (tudor and KH domain containing),2,3.64,inactive
TDRKH (tudor and KH domain containing),3,-1.08,inactive
PDE4C (phosphodiesterase 4C),1,0.252,inactive
PDE4C (phosphodiesterase 4C),2,-0.429,inactive
PDE4C (phosphodiesterase 4C),3,-0.0949,inactive
PAIP2B (poly(A) binding protein interacting protein 2B),1,-0.873,inactive
PAIP2B (poly(A) binding protein interacting protein 2B),2,0.344,inactive
PAIP2B (poly(A) binding protein interacting protein 2B),3,0.0591,inactive
BIRC7 (baculoviral IAP repeat containing 7),1,-1.07,inactive
BIRC7 (baculoviral IAP repeat containing 7),2,0.617,inactive
BIRC7 (baculoviral IAP repeat containing 7),3,1.16,inactive
ATF3 (activating transcription factor 3),1,1.83,inactive
ATF3 (activating transcription factor 3),2,0.0123,inactive
ATF3 (activating transcription factor 3),3,-0.687,inactive
ANKRD26P1 (ankyrin repeat domain 26 pseudogene 1),1,0.0334,inactive
ANKRD26P1 (ankyrin repeat domain 26 pseudogene 1),2,-1.1,inactive
ANKRD26P1 (ankyrin repeat domain 26 pseudogene 1),3,1.23,inactive
NEURL2 (neuralized E3 ubiquitin protein ligase 2),1,-0.697,inactive
NEURL2 (neuralized E3 ubiquitin protein ligase 2),2,-0.675,inactive
NEURL2 (neuralized E3 ubiquitin protein ligase 2),3,-1.55,inactive
ELOCP3 (elongin C pseudogene 3),1,0.491,inactive
ELOCP3 (elongin C pseudogene 3),2,2.6,inactive
ELOCP3 (elongin C pseudogene 3),3,-1.04,inactive
DBF4 (DBF4-CDC7 kinase regulatory subunit),1,0.299,inactive
DBF4 (DBF4-CDC7 kinase regulatory subunit),2,-1.31,inactive
DBF4 (DBF4-CDC7 kinase regulatory subunit),3,0.611,inactive
DTX3 (deltex E3 ubiquitin ligase 3),1,0.75,inactive
DTX3 (deltex E3 ubiquitin ligase 3),2,0.164,inactive
DTX3 (deltex E3 ubiquitin ligase 3),3,-0.237,inactive
